From the supplement of paper PMC10060354, “Discovery of a small molecule ligand of FRS2 that inhibits invasion and tumor growth” (Cellular Oncology, 2022)

The chains behind the UniProt entries cited, without tags or fusion partners. Where a name states a change or a piece, a line headed by the entry shows the natural chain unless it says otherwise.
UniProt O14867: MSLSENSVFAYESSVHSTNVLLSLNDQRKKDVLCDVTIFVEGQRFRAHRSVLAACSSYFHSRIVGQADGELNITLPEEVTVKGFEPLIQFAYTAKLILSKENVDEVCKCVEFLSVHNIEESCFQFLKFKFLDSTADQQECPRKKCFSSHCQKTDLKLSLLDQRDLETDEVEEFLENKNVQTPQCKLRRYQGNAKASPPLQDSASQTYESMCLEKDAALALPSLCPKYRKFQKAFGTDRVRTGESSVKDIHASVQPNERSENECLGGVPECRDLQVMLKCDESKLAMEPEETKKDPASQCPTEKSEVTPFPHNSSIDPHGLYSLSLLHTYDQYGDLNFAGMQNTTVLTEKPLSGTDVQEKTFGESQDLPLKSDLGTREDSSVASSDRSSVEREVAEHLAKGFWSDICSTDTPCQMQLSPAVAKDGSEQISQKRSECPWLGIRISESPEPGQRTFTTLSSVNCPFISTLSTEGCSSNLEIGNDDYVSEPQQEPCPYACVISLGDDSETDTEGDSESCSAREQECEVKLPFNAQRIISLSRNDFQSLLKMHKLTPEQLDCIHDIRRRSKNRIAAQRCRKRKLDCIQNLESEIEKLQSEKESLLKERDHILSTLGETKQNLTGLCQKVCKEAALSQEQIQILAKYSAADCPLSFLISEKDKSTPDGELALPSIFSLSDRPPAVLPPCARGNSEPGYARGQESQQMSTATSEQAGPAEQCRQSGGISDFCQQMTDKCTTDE
UniProt Q9Y4B6: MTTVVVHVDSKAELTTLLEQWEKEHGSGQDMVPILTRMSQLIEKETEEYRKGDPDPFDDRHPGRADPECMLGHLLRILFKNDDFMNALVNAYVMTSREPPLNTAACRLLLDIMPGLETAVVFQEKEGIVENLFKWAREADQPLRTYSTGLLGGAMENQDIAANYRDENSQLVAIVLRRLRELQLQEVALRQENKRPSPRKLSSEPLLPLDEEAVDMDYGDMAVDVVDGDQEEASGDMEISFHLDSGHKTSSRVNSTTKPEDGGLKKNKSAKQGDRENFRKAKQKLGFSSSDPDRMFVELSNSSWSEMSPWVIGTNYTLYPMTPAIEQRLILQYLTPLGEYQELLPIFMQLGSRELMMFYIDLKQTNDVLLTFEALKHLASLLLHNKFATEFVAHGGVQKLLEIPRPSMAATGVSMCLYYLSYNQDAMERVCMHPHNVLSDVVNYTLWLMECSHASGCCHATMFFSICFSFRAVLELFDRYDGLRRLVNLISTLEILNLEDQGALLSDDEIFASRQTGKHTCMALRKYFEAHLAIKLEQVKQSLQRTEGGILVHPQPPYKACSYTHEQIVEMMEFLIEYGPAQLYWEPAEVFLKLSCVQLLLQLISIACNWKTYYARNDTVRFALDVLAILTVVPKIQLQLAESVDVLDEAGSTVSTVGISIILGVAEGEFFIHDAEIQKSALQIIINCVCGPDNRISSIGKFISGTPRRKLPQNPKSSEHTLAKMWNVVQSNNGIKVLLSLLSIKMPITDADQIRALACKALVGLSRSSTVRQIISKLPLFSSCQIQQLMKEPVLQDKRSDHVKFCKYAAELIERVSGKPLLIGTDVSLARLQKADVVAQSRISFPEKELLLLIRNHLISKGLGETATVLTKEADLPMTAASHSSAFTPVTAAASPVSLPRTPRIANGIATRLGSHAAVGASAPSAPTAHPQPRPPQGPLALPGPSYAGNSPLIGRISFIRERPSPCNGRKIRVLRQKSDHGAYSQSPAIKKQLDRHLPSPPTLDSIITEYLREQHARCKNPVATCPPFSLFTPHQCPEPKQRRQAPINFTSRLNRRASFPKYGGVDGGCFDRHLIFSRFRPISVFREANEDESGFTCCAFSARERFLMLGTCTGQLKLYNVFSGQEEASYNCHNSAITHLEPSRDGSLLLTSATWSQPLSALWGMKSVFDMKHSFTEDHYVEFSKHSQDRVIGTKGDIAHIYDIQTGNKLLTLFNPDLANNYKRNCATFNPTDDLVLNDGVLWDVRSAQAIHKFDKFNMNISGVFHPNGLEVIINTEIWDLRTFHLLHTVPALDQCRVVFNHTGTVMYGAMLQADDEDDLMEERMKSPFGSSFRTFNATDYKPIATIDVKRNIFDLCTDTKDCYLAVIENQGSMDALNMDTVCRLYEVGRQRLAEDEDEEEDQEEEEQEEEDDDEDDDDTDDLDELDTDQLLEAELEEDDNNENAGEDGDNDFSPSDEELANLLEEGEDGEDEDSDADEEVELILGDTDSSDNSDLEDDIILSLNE
UniProt Q5VV42: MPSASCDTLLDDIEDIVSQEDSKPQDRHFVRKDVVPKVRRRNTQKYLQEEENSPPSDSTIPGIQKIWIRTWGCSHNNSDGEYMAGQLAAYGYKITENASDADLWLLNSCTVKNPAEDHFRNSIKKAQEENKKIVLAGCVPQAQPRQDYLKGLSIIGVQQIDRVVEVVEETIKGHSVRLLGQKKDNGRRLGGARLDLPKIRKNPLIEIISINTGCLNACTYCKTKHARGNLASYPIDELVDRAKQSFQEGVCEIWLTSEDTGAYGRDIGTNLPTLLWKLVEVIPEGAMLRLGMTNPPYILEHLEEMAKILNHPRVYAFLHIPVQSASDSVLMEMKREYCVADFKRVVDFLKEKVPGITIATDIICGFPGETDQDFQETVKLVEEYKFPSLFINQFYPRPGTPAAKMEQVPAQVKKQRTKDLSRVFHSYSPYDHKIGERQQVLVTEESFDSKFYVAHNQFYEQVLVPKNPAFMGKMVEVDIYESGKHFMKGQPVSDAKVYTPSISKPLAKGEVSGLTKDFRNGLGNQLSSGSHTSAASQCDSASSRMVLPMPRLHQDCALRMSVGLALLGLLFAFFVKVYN
UniProt Q9UPN7: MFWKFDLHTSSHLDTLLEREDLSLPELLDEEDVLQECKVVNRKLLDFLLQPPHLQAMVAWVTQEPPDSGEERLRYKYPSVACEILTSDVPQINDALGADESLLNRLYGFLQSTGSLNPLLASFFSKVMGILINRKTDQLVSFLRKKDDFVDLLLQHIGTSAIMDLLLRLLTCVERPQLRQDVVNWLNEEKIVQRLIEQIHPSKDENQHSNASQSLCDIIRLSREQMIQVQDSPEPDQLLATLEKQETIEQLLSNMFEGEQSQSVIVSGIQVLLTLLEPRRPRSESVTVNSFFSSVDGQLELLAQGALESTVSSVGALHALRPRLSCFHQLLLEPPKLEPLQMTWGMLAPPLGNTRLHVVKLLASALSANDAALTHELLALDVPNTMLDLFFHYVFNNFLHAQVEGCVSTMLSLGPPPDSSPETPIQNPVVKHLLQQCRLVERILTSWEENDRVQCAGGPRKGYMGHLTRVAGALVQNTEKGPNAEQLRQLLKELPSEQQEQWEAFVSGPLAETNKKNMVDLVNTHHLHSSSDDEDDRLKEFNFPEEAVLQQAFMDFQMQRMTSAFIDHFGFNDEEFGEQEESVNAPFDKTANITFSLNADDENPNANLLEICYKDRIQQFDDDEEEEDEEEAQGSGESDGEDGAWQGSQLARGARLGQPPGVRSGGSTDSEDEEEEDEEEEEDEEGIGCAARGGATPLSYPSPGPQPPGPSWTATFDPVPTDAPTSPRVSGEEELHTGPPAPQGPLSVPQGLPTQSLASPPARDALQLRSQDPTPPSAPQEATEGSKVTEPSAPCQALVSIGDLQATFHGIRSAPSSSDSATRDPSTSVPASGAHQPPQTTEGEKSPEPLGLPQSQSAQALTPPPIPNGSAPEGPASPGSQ
UniProt Q96EB1: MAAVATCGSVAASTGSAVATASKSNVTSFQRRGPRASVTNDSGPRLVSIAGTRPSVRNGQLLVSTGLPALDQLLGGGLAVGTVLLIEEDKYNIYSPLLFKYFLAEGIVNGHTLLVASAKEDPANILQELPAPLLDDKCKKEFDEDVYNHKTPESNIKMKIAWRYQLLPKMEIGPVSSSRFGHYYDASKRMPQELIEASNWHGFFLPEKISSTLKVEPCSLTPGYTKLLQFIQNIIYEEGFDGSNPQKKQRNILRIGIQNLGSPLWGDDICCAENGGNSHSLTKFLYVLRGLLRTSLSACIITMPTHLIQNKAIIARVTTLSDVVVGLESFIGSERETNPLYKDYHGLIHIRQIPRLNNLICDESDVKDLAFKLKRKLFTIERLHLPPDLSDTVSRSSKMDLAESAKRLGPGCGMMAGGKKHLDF
UniProt Q9Y4Z0: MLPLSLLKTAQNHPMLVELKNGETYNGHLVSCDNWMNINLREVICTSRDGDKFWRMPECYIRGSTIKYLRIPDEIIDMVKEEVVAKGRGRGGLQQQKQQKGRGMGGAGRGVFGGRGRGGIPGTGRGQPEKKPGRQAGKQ
UniProt Q9P2Y5: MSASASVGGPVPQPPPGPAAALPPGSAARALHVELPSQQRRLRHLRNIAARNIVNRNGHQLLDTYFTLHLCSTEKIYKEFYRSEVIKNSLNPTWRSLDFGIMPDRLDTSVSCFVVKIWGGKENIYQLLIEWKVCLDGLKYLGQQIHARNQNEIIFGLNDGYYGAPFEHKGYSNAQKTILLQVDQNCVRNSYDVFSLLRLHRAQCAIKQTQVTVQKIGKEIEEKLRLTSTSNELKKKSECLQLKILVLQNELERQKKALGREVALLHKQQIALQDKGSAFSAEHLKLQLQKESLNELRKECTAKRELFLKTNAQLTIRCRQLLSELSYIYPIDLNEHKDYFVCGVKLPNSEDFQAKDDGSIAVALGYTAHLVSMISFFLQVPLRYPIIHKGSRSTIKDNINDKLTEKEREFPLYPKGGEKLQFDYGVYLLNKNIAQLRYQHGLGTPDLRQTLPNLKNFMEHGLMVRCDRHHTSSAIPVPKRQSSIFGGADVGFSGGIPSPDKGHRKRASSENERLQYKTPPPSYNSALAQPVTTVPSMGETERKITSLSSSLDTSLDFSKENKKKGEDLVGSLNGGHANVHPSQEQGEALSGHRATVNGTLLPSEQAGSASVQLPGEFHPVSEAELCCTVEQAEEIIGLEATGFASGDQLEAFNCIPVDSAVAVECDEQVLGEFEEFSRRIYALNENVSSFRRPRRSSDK
UniProt O15379: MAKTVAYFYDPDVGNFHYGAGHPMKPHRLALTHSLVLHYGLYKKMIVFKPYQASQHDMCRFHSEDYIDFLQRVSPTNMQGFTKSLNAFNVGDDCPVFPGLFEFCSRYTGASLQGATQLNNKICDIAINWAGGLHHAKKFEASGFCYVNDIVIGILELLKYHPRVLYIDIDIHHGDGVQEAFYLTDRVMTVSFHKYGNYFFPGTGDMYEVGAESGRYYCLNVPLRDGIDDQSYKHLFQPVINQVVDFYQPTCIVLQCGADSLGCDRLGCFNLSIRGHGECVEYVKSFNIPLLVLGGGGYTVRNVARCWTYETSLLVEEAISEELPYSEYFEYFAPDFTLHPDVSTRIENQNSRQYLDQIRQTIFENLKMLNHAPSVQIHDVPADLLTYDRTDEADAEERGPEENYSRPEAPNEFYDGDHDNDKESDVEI
UniProt Q9GZQ3, whole entry: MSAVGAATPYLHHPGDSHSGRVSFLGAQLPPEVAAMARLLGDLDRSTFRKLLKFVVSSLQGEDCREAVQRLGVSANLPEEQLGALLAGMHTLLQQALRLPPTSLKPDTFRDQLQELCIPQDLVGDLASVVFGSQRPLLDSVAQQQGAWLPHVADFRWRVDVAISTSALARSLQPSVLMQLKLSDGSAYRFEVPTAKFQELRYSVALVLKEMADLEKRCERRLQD
UniProt Q9Y3C8: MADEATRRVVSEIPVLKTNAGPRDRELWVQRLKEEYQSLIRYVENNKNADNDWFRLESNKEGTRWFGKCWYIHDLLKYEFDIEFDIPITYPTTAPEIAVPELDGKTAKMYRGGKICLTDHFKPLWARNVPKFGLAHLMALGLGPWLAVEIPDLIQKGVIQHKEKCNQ
UniProt P51812, whole entry: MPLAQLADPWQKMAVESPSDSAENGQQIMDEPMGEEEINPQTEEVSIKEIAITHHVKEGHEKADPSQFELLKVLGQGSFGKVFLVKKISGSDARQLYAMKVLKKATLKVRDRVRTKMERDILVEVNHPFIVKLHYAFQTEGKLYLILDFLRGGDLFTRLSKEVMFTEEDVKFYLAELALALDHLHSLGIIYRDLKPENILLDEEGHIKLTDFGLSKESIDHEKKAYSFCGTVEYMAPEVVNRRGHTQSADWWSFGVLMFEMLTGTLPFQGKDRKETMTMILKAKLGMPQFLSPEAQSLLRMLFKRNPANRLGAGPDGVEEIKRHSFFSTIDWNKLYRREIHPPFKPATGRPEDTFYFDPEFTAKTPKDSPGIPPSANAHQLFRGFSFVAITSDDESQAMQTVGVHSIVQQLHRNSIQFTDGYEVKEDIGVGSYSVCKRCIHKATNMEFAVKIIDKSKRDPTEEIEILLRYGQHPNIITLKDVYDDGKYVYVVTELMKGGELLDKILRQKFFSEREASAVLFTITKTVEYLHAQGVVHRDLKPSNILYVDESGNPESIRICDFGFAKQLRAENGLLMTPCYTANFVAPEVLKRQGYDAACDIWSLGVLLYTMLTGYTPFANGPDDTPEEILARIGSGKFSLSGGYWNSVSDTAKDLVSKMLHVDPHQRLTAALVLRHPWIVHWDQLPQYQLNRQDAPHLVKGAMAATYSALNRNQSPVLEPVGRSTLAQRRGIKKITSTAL

Compound: [O-][N+](C(C1=C(C(O)=C2)NC(C(C=C3)=CC=C3Cl)C4C1C=CC4)=C2Cl)=O
Experiment: melting temperature shift (compound 7 minus DMSO); higher = compound stabilises the protein
Conditions: 10 µM
Description: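 Thermal proteome profiling (TMT mass spectrometry) in intact DAOY medulloblastoma cells or DAOY lysates treated with 10 µM compound 7 or DMSO, heated at 10 temperatures from 40.5 to 73.8 °C for 3 min. Melting curves were fitted with the Bioconductor TPP package, and the melting point difference between compound and vehicle is reported per protein (single curve per condition).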

[1] = system: DAOY cell lysate, treatment time: 20 min, 4 °C
[2] = system: intact DAOY cells, treatment time: 90 min, 37 °C

| Target | melting temperature shift [1] [°C] | melting temperature shift [2] [°C] |
| --- | --- | --- |
| SRP19 (UniProt P09132) | -0.935 | -1.19 |
| UCKL1 (UniProt Q9NWZ5) | 1.56 | -0.242 |
| UniProt Q5THK1 | 1.42 |  |
| SEC24B (UniProt O95487) | 0.282 | 3.1 |
| NGRN (UniProt Q9NPE2) | -1.64 |  |
| PANK3 (UniProt Q9H999) | -0.61 | -1.45 |
| UniProt Q9NVA2 | -1.31 | 0.765 |
| EPB41 (UniProt P11171) | 0.997 | 0.342 |
| RTF1 (UniProt Q92541) | -1.01 | -0.265 |
| UniProt Q9NP84 | 0.0235 |  |
| BACH1 (UniProt O14867) | -0.396 |  |
| VPRBP (UniProt Q9Y4B6) | -0.194 | -0.489 |
| DSG2 (UniProt Q14126) | 0.634 | 1.45 |
| TAPT1 (UniProt Q6NXT6) | 2.01 | -0.466 |
| TMA16 (UniProt Q96EY4) | 0.255 |  |
| USP24 (UniProt Q9UPU5) | -0.44 | -1.5 |
| ATP5B (UniProt P06576) | 1.48 | -0.411 |
| CHMP4C (UniProt Q96CF2) |  | -0.788 |
| TNFRSF10B (UniProt O14763) | 4.36 |  |
| UniProt Q9BX67 | 2.26 |  |
| ACSL1 (UniProt P33121) | 0.373 | 3.38 |
| TTC39C (UniProt Q8N584) | -0.652 | 0.798 |

| Target | melting temperature shift [1] [°C] | melting temperature shift [2] [°C] |
| --- | --- | --- |
| UniProt Q8N8R5 |  | 0.545 |
| UniProt Q9Y2B0 | -1.57 | 0.597 |
| UniProt O75526 |  | -0.829 |
| CDKAL1 (UniProt Q5VV42) | 1.74 | -0.856 |
| SHMT2 (UniProt P34897) | 0.295 | -0.625 |
| CERS2 (UniProt Q96G23) | -0.069 | -1.79 |
| THOC7 (UniProt Q6I9Y2) | 0.102 | 2.47 |
| MUT (UniProt P22033) | 0.345 | -0.969 |
| MRPL16 (UniProt Q9NX20) |  | -2.52 |
| PPP6R1 (UniProt Q9UPN7) | -1.26 | -0.929 |
| RACK1 (UniProt P63244) | -0.306 | -1.08 |
| NABP2 (UniProt Q9BQ15) | -0.00379 |  |
| SIN3A (UniProt Q96ST3) | -0.00973 | -0.117 |
| COPG1 (UniProt Q9Y678) | -0.694 | 0.0855 |
| TPM3 (UniProt P06753) | -0.843 |  |
| SLIRP (UniProt Q9GZT3) | 0.744 | -1.15 |
| UniProt P13928 |  | -0.643 |
| SNRNP200 (UniProt O75643) | -0.0373 | 0.617 |
| COPS5 (UniProt Q92905) | -0.749 | -0.165 |
| ELP4 (UniProt Q96EB1) | -0.0134 | 1.28 |
| UniProt Q96L46 |  | 0.765 |
| LOXL2 (UniProt Q9Y4K0) | -1.97 | -0.0117 |

Part of the list above in another layout:
Target,melting temperature shift [1] [°C],melting temperature shift [2] [°C]
PPP6R1 (UniProt Q9UPN7),-1.26,-0.929
RACK1 (UniProt P63244),-0.306,-1.08
NABP2 (UniProt Q9BQ15),-0.00379,
SIN3A (UniProt Q96ST3),-0.00973,-0.117

Next results follow:

| Target | melting temperature shift [1] [°C] | melting temperature shift [2] [°C] |
| --- | --- | --- |
| FAM134A (UniProt Q8NC44) | 1.43 |  |
| LSM4 (UniProt Q9Y4Z0) | -0.183 | -0.775 |
| UniProt Q7Z769 | 0.87 | -5.76 |
| UVRAG (UniProt Q9P2Y5) | -1.34 | -0.321 |
| PSMA2 (UniProt P25787) | 0.594 | 0.745 |
| INPP5B (UniProt P32019) |  | 2.84 |
| UBE2G1 (UniProt P62253) | -0.556 | 0.267 |
| HDAC3 (UniProt O15379) | -0.219 | -0.233 |
| PPIL3 (UniProt Q9H2H8) | -0.216 | 0.362 |
| MAPRE1 (UniProt Q15691) | -0.266 | -0.128 |
| RALY (UniProt Q9UKM9) | 0.953 | -0.213 |
| RARS2 (UniProt Q5T160) | 1.02 | -0.381 |
| COMMD5 (UniProt Q9GZQ3) | -1.1 | -0.86 |
| SLC30A5 (UniProt Q8TAD4) | 0.666 |  |
| NAGLU (UniProt P54802) | -2.79 |  |
| PGAM1 (UniProt P18669) |  | -1.6 |
| AASDHPPT (UniProt Q9NRN7) | -0.37 | -0.0584 |
| FDFT1 (UniProt P37268) | 1.17 | 0.148 |
| PSMG4 (UniProt Q5JS54) | -2.56 | -1.12 |
| FLVCR1 (UniProt Q9Y5Y0) | 4.79 | -1.17 |
| UniProt P05408 |  | 0.28 |
| UFC1 (UniProt Q9Y3C8) | 0.364 | 0.491 |

| Target | melting temperature shift [1] [°C] | melting temperature shift [2] [°C] |
| --- | --- | --- |
| UniProt Q6ZQQ6 | -1.23 | -1.25 |
| IDI1 (UniProt Q13907) | -1.55 | -0.92 |
| ITGA6 (UniProt P23229) | 1.48 | 0.101 |
| UniProt Q8N2Y8 | 2.58 |  |
| SNX5 (UniProt Q9Y5X3) | -0.101 | -1.99 |
| RANGAP1 (UniProt P46060) | -0.286 | -0.378 |
| GLA (UniProt P06280) | 2.7 | 1.23 |
| PDE4DIP (UniProt Q5VU43) | -1.09 | -0.846 |
| HPS5 (UniProt Q9UPZ3) | -1.09 | 0.282 |
| ZNF326 (UniProt Q5BKZ1) | 0.112 | -0.189 |
| RPS6KA3 (UniProt P51812) | -0.625 | 0.00506 |
| DNM1L (UniProt O00429) | -0.654 | -0.915 |
| ARPC5L (UniProt Q9BPX5) | -0.539 | 1.08 |
| BMS1 (UniProt Q14692) |  | 0.0164 |
| VPS35 (UniProt Q96QK1) | -0.404 | -0.497 |
| PRPSAP2 (UniProt O60256) | -1.05 | -0.499 |
| UniProt O43463 | 0.377 | 0.748 |
| UniProt O60462 | -1.03 | -2.22 |
| FAM120B (UniProt Q96EK7) | -1.02 | -0.318 |
| DPH1 (UniProt Q9BZG8) | -0.718 | -0.903 |
| UniProt A5D8V7 |  | -0.225 |
| TSC2 (UniProt P49815) | 0.231 | 0.148 |

Single values are uncertain, as repeats are few or missing.
